Consider two substances from US11229681.

Chains of the proteins cited; added tags and fusions are not shown. Lines headed by an entry give the natural chain unless they say otherwise; changes in a name come on top.
UniProt P06756: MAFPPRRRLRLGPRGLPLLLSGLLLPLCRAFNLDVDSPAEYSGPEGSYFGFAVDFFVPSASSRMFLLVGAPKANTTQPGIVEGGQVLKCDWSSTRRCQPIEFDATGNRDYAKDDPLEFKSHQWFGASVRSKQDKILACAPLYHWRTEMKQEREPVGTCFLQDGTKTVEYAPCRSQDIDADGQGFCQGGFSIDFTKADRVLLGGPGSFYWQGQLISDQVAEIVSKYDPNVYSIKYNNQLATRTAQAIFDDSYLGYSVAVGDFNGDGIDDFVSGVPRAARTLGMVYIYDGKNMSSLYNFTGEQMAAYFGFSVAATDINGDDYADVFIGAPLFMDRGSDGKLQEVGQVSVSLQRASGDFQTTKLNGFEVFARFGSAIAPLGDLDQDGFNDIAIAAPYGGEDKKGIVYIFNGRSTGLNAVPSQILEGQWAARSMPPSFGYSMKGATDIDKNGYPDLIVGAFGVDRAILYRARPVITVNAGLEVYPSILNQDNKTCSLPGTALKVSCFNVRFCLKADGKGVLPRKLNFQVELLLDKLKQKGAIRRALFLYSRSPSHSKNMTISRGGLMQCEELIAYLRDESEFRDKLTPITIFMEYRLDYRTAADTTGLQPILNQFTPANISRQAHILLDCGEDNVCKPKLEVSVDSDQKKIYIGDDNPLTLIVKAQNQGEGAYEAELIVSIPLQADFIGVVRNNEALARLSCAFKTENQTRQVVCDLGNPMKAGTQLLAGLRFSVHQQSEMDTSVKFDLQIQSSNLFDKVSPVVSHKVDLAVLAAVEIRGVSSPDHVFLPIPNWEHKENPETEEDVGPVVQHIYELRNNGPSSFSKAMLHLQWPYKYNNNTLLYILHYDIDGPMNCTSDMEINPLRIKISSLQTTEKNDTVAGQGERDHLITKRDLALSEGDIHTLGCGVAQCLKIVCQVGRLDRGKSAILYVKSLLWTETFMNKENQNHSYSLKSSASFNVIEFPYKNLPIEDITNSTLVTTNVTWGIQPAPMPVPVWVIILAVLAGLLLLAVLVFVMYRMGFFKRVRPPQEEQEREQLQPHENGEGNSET
UniProt P09038: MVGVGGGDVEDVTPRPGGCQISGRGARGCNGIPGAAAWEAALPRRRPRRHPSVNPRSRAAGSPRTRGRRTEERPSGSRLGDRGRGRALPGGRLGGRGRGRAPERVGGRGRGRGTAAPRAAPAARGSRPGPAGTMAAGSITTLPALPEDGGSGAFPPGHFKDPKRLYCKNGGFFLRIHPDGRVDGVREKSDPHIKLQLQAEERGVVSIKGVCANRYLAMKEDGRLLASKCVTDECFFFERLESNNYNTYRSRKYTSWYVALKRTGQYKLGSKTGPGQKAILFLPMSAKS

Results are given in words; binding and its absence hold for the method and conditions named. Some entries that bind do so weakly or less than the wild type.

Assay [1] has as its target recombinant soluble integrin αvβ3 (UniProt P06756). The assay can be described thus: SPR, soluble αvβ3 immobilized. Background: In SPR one partner is held on a chip, and binding of the other changes the refractive index at the surface.
Assay [2] has the same target. Put plainly: SPR, soluble αvβ3 immobilized on the chip, FGF2 mutant injected.
In assay [3] the target is recombinant integrin αvβ3 on K562 cells (αvβ3-K562 cells) (UniProt P06756). Put plainly: adhesion assay with αvβ3-K562 cells.
The target of assay [4] is recombinant soluble integrin αvβ3 (UniProt P06756). Put plainly: SPR, soluble αvβ3 immobilized on the chip, FGF2 injected.

On to “K125E FGF2 mutant (from UniProt P09038 143-288) (ligand)”, for which the binding result in assay [1] and in assay [2] was “binds” in each case.

“wild-type human FGF2 (SEQ ID NO:1) (from UniProt P09038 143-288) (ligand)”: the binding entry in assay [3], in assay [4] and in assay [1] was “binds” each time.
